Source: PubChem BioAssay AID651660 (Broad Institute, 2012)
Where “and” joins values, the source holds several entries; their conditions need not be identical. Equal entries are not always repeated. The whole screen tested about 1,900 compounds, of which about 15 (0.8%) were called active.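 How the source made its calls: active means every replicate shows at least 50% inhibition; inconclusive means mean inhibition at least 50% but some replicate below; inactive means the rest.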 This is one part of the list. Residues, ends and D or L forms follow the SMILES beside them. *: point of attachment. Boc = CC(C)(C)OC(=O)*

Chains of the proteins cited; added tags and fusions are not shown. Lines headed by an entry give the natural chain unless they say otherwise; changes in a name come on top.
UniProt P43351: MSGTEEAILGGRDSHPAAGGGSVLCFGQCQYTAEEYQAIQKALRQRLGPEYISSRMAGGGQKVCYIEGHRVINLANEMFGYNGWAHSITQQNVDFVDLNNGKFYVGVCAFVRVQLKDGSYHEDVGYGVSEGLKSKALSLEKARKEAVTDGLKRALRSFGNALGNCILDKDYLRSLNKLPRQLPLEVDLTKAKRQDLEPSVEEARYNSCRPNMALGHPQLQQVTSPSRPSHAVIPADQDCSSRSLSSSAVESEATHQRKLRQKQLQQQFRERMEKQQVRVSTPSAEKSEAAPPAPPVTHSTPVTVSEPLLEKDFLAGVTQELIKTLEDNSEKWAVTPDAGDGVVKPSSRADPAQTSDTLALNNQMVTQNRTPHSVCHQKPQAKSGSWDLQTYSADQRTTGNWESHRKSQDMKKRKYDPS

These compounds were tested against DNA repair protein RAD52 homolog (Homo sapiens) (UniProt P43351) (assay: inhibition of RAD52-mediated strand annealing – biochemical, FRET, single point, primary screen (AID 651660;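 further: 0% = median of neutral control wells and 100% = median of positive control wells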)). Settings: Recombinant RAD52 ssDNA annealing, FRET fluorescence, 30 min; at 18.7 µM; hits give high values.

inhibition, active:
C1CCC(C(CC2CCCCN2)C2CCCCC2)CC1 (centres undefined) 62.5%
CN1CCN(CCCN2c3ccccc3Sc3ccc(C(F)(F)F)cc32)CC1 67.4%

inhibition, inactive:
NS(=O)(=O)c1cc2c(cc1Cl)NC(C(Cl)Cl)NS2(=O)=O (centres undefined) -8.63%
C[C@H](NC(=O)OC(C)(C)C)C(=O)NCC1CCC(C(=O)O)CC1 (some centres undefined) -0.108%
NC(N)=NC(=O)Cc1c(Cl)cccc1Cl -5.92%
O=C(c1ccccc1)N1CCN(C(=O)c2ccccc2)CC1 -7.09%
COc1ccc(OC)c(S(=O)(=O)N2CCCc3ccccc32)c1 3.3%
NCCc1cnc[nH]1 -7.79% and -0.317%
CCN(CC)CCNC(=O)c1cc(Cl)c(N)cc1OC 5.94%
COc1cc2c(cc1OC)C1(CCCC1)CNC2c1cccc([N+](=O)[O-])c1 (centres undefined) 13.6%
Cn1c(=O)c2c(nc(SCCN3CCCCC3)n2C)n(C)c1=O -1.44%
CCOc1ccc2ccccc2c1C(=O)N[C@@H]1C(=O)N2[C@@H]1SC(C)(C)[C@@H]2C(=O)O -5.73%
CCCC(=O)O[C@]1(C(=O)CCl)[C@@H](C)C[C@H]2[C@@H]3CCC4=CC(=O)C=C[C@]4(C)[C@@]3(F)C(=O)C[C@@]21C 12.1%
COc1ccc(CCNC(=O)c2c(O)c3c([nH]c2=O)CCCC3)cc1 -4.72%
CCc1ccc(/C=C2\Oc3cc(OC(=O)N4CCOCC4)ccc3C2=O)cc1 -7.62%
[N-]=[N+]=NC1C[C@H](n2ccc(=O)[nH]c2=O)O[C@@H]1CO (some centres undefined) -0.741%
COc1ccc(S(=O)(=O)NCc2ccco2)c2ccccc12 -15.4%
CC1=NN(c2ccccc2)C(=O)C1 4.21%
Cc1oc2c(O)c(O)ccc2c(=O)c1-c1ccccc1 -3.45%
O=C(O)CCNC(=O)c1ccccc1 -3.95%
CC(C)CCn1c(N2CCc3ccccc3C2)nc2c1c(=O)[nH]c(=O)n2C -3.91%
c1ccc(Nc2ccccn2)nc1 -26.8%
CC(C)[N+](C)(CCOC(=O)C1c2ccccc2Oc2ccccc21)C(C)C -3.65%
COc1cccc2c1C(=O)O/C2=C/c1ccc2c(c1)OCO2 -3.05%
c1cc2c(cc1C1CCCCC1)c1c3n2CCN=C3CCC1 43.4%
Cc1ccc2c(c1C)NC(C(=O)O)C1CC=CC21 (centres undefined) -91.9%
CCN(Cc1ccncc1)Cc1nc(Cc2ccccc2Cl)no1 -13.8%
CC(C)CC(=O)Nc1ccc2oc(-c3ccncc3)nc2c1 -3.09%
CCOc1cc(C)cc2oc(=O)cc(-c3ccccc3)c12 -1.55%
OC[C@H]1O[C@@H](n2cnc3c(NC4CCCC4)ncnc32)[C@H](O)[C@@H]1O -4.78%
NC(N)=N/N=C/c1ccc(OS(=O)(=O)c2ccccc2)cc1 9.35%
C1COC(NC(C2CC2)C2CC2)=N1 -4.16%
CCN(CC)CCCNC(=O)C1c2ccccc2Oc2ccccc21 4.59%
Cc1ccc(S(=O)(=O)Nc2ccc(S(=O)(=O)Nc3cc(C)nc(C)n3)cc2)cc1 -6.96%
O=C1c2ccccc2C(=O)N1/N=C/c1ccc(Oc2ccc([N+](=O)[O-])cn2)cc1 -3.05%
COc1ccc(CCN=C(N)C(C)c2ccccc2)cc1OC (centres undefined) 7.74%
COC1CCN(C(=O)c2ccc(OC3CCN(Cc4ccccn4)CC3)cc2)CC1 -6.77%
COc1ccc(OCC(=O)N2c3ccc(C)cc3C3CN(C)CCC32)cc1 (centres undefined) -2.15%
COc1cccc(CN2CCN(C(=O)c3ccc(-c4ccccc4)cc3)CC2)c1 -2.78%
Cc1nc(N)sc1C(=O)N/N=C/c1ccco1 -8.8%
Cc1ccc(S(=O)(=O)N[C@@H](Cc2ccccc2)C(=O)CCl)cc1 -0.187%
Clc1ccc(OCCCN2CCCCC2)c(Br)c1 5.3%
O=C(NCCc1cccc(F)c1)[C@@H]1CSC2c3ccccc3C(=O)N21 (some centres undefined) -14.6%
CC(C)NCC(O)COc1ccc(CCOCC2CC2)cc1 (centres undefined) -4.67%
CC(=O)[C@@]1(O)CC[C@H]2[C@@H]3C[C@H](C)C4=CC(=O)C=C[C@]4(C)[C@@]3(F)[C@@H](O)C[C@@]21C 4.46%
CCc1nc(N)nc(N)c1-c1ccc(Cl)cc1 6.62%
COc1cccc(-n2cc(CNCc3c(C(=O)N(C)C)nc4ccc(Cl)cn34)cn2)c1 -5.77%
CNS(=O)(=O)c1ccc(C)cc1 -4.88%
COC(=O)c1cc(C(=O)NCCC(C)C)cc([N+](=O)[O-])c1 1.21%
C/C(=N\NC(=O)C1(C)CC1(Br)Br)c1ccc([N+](=O)[O-])cc1 (centres undefined) -0.318%
CN(C)C(=O)C12CCC(C)(c3nc4ccccc4nc31)C2(C)C (centres undefined) 5.24%
c1cnc(N2CCN(Cc3ccc4c(c3)OCO4)CC2)nc1 -7.05%
CCC(CO)NCCNC(CC)CO (centres undefined) -3.99%
CC1CCN(CCOCCOc2ccccc2Br)CC1 -6.71%
CC(C)[C@H]1CN(C)CCN1Cc1cn(C)nc1-c1cccc(Cl)c1 5.87%
O=C(Nc1c(C(=O)O)[nH]c2ccccc12)NC1CCCCC1 6.28%
CC(C)C(=O)Nc1c(O)c2ccccc2[nH]c1=O -4.57%
C(=C\c1ccccc1)/CN1CCN(C(c2ccccc2)c2ccccc2)CC1 -5.05%
C=CCc1cc(Cl)ccc1OCCOCCN(C)C 3.43%
CC(=O)NC1C(OCCOc2ccc(Cl)cc2Cl)OC(COC(C)=O)C(OC(C)=O)C1OC(C)=O (centres undefined) -0.287%
Cn1c(=O)c2c(ncn2Cc2ccccc2)n(C)c1=O 0.734%
CCOC(=O)C1C(=O)OC2(CCOC(C)(C)C2)C1C(=O)OCC (centres undefined) -9.42%
Cc1ccc(OCCCCn2ccnc2C)c(C)c1 -20.1%
O=c1ccc2c(o1)/C(=C/C=C(Cl)Cl)CCC2 -32.2%
O=c1c(-c2ccc3c(c2)OCCO3)coc2cc(OC3OC(CO)C(O)C(O)C3O)ccc12 (centres undefined) 2.13%
Cc1cccc(N2CCN(C(=S)c3ccccc3)CC2)c1 -9.38%
CC(C)CN1CCN(Cc2ccc(C#CC(C)(C)O)cc2)CC1CCO (centres undefined) 0.98%
Nc1nc2ccc(OC(F)(F)F)cc2s1 -0.0755%
COc1ccc2c(c1)c(CC(=O)O)c(C)n2C(=O)c1ccc(Cl)cc1 -6.07%
CCc1cccc2c1NC1(CCCC1)CC2C (centres undefined) 5.29%
O=C(COc1ccc2ccc(=O)oc2c1)c1ccccc1 2.43%
C/C(=N\NC(=O)c1ccccc1[N+](=O)[O-])c1ccc(Br)s1 -17.1%
COc1ccc(OCc2cccc(C(=O)NN)c2)cc1 -5.52%
CC(C)OC(=O)CC1C(=O)NCCN1C(=S)NC(=O)c1cccs1 (centres undefined) -9.72%
NC(N)=NC(N)=NCCc1ccccc1 -2.33%
CC(NC(=O)c1cccnc1)C(=O)O (centres undefined) 14.8%
Cc1csc(-c2coc3cc(O)cc(C)c3c2=O)n1 11%
COc1ccc(NC(=O)C2C(=O)N(CCO)C3(C)CC2c2ccccc2O3)cc1 (centres undefined) 4.92%
Cc1ccc(S(=O)(=O)n2ccnc2)cc1C -6.19%
Cc1ncc(C(=O)O)c(C(=O)O)c1N -18.8%
CC(C)CC(NC(=O)C1CCCN1C(=O)OC(C)(C)C)C(=O)NCC(N)=O (stereo not drawn) (Boc-Pro-Leu-Gly-NH2; configuration not given here) -6.74%
CC(C)[N+]1(C)[C@@H]2CC[C@H]1CC(OC(=O)C(CO)c1ccccc1)C2 (some centres undefined) -1.24%
C[N+]1(C2CCC3CCCC2C3O)CCCCC1 (centres undefined) -13.3%
CNC[C@H](O)c1ccc(O)c(O)c1 -2.68%
COC(=O)c1cc(OC)c(OC)cc1NC(=O)CN1C(=O)c2ccccc2C1=O -0.366%
CN(C(=O)C(Cl)Cl)c1ccc(OC(=O)c2ccco2)cc1 3.28%
Cc1oc2c(CN3CCCC3)c(O)ccc2c(=O)c1-c1ccc(Cl)cc1 2.93%
CN(C)CCOC(C)(c1ccccc1)c1ccccn1 (centres undefined) -11.3%
Cc1ccc(Nc2ncccc2C(=O)O)cc1C 2.06%
Cc1cc(=O)[nH]c(=S)[nH]1 -5.96%
O=C(CCCCCCCC(=O)c1ccccc1)c1ccccc1 2.66%
C=C(C)Cn1c(NCCOC)nc2c1c(=O)[nH]c(=O)n2C 7.63%
COc1cc2c(cc1OC)/C(=C/c1ccc(Cl)cc1)C(=O)OC2 7.04%
CC(=O)c1ccc(CCCCCCCCCC(=O)O)s1 -16.6%
COC(=O)c1[nH]c(=O)c2ccccc2c1O -2.42%
CC(=O)N/C(=C/c1ccc2c(c1)OCO2)C(=O)NCCO -14.2%
CCc1nc2ccccc2c(NC(=O)CN2CC(C)CC(C)C2)c1C (centres undefined) -5.82%
COC(=O)c1cc(-c2ccc(OC)c(OC)c2)on1 -6.12%
COc1ccc(/C=C/C(=O)Nc2ccccc2C(=O)O)cc1OC -9.71%

Quoted from the entries so far (2 entries):
inhibition, inactive:
O=c1c(-c2ccc3c(c2)OCCO3)coc2cc(OC3OC(CO)C(O)C(O)C3O)ccc12 (centres undefined) 2.13%
Cc1cccc(N2CCN(C(=S)c3ccccc3)CC2)c1 -9.38%

Reprinted at random: two entries already listed.
inhibition, inactive:
NCCc1cnc[nH]1 -7.79% and -0.317%
COc1cccc2c1C(=O)O/C2=C/c1ccc2c(c1)OCO2 -3.05%
